# Data as given in US20250188069A1, “COMPOUNDS AND METHODS FOR DEGRADING CASEIN KINASE 1 ALPHA” (PIN THERAPEUTICS, INC., priority 2022, published 2025).
# Protein sequences, listed by entry. Tags and fused reporters are not part of them. Lines headed by an entry give the natural chain unless they say otherwise; changes in a name come on top.
# UniProt P48729: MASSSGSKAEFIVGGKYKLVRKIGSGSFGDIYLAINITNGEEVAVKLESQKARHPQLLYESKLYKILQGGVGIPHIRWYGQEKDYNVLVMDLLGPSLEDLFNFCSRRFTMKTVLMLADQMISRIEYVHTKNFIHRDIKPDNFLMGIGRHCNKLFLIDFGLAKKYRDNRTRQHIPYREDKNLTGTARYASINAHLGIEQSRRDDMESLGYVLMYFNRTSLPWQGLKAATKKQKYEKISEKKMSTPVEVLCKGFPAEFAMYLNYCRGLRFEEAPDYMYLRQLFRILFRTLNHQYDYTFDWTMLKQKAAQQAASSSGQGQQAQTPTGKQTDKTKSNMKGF
# UniProt Q96SW2: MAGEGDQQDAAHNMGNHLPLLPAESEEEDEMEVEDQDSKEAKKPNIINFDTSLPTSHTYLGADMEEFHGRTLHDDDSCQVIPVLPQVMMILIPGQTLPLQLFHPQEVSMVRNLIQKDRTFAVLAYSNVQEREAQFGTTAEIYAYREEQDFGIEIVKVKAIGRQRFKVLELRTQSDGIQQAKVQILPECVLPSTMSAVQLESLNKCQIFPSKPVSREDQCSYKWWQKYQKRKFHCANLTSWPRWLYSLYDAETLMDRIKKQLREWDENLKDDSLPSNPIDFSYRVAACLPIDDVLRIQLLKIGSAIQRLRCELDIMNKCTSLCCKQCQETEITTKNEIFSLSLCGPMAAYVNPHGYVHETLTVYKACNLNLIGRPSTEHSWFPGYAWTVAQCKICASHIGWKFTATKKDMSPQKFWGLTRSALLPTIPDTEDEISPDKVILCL
# The name of at least one read-out is uncertain.
# Molecular target: CK1α (Homo sapiens, UniProt P48729+Q96SW2)
# Test: CK1α degradation, flow cytometry in MV4-11 cells
# Format: cell-based
# Set-up: CK1α levels were determined in MV-4-11 cells using Jess (Protein Simple); host or cells: MV-4-11
# Conditions: % reduction of CK1α compared to DMSO, MV4-11 cells at 1 M for 16 hours
# Experimental: MV-4-11 cells were obtained from ATCC and grown in IMDM supplemented with 10% FBS. The cells were maintained at 37° C. under 5% CO2.
# Compounds of the present disclosure were added to cells (final DMSO concentration of 0.5%) and incubated for 16 hours. CK1α level was determined in MV4-11 cells using flow cytometry (Luminex, Guava EasyCyte Plus). Briefly, cells were prepared with sequential 10% formalin and 70% methanol fixation. […] GuavaSoft Incyte software was used to analyse the flow cytometry data. Protein levels relative to DMSO are calculated for CK1α.
# The efficacy of CK1α degradation of other part of compounds of the present disclosure was determined by treating MV4-11 cells at […] (Final DMSO concentration of 0.5%) for 16 hours. Protein levels relative to DMSO are calculated for CK1α.
# Protein levels relative to DMSO are calculated for CK1α.
row,Structure (SMILES),CK1α degradation classification
1,"CCCCCN(C[C@H]1CC[C@@H](N)CC1)c1cccc2c1CN(C1CCC(=O)NC1=O)C2=O.Cl (stereo partly drawn) [Compound 91, 3-(4-((((1s,4s)-4-aminocyclohexyl)methyl)(pentyl)amino)-1-oxoisoindolin-2-yl)piperidine-2,6-dione, HCl]",B (Degradation is less than 75% & greater than or equal to 50%)
2,"CCCCCN(CCCCNC(=O)CCC)c1cccc2c1CN(C1CCC(=O)NC1=O)C2=O (stereo not drawn) [Compound 148, N-(4-((2-(2,6-dioxopiperidin-3-yl)-1-oxoisoindolin-4-yl)(pentyl)amino)butyl)butyramide]",A (Degradation is greater than or equal to 75%)
3,"CCCCCN(CCCCNC(=O)CC(C)C)c1cccc2c1CN(C1CCC(=O)NC1=O)C2=O (stereo not drawn) [Compound 149, N-(4-((2-(2,6-dioxopiperidin-3-yl)-1-oxoisoindolin-4-yl)(pentyl)amino)butyl)-3-methylbutanamide]",B (Degradation is less than 75% & greater than or equal to 50%)
